Results from article PMC5325399.
No constants are given. Whether binding was seen depends on the method and setting. Binding seen in cells or lysates may run through a third protein.

Target: E-cadherin (CDH1) (mouse (endogenous in G-2 cells))
Assay: co-IP; 200 μg G-2 cell lysate in CHAPS buffer (100 mM Tris-HCl pH 7.4, 50 mM NaCl, 1 mM EDTA, 1% NP40, 0,1% CHAPS); anti-mouse CEACAM1 antibody CC1 or anti-E-cadherin antibodies on protein G sepharose, overnight at 4°C; immunoblot with anti-β-catenin and anti-CEACAM1

B1: carcinoembryonic antigen-related cell adhesion molecule 1 (CEACAM1) (protein, UniProt P31809 35-521)
chain: EVTIEAVPPQVAEDNNVLLLVHNLPLALGAFAWYKGNTTAIDKEIARFVPNSNMNFTGQAYSGREIIYSNGSLLFQMITMKDMGVYTLDMTDENYRRTQATVRFHVHPILLKPNITSNNSNPVEGDDSVSLTCDSYTDPDNINYLWSRNGESLSEGDRLKLSEGNRTLTLLNVTRNDTGPYVCETRNPVSVNRSDPFSLNIIYGPDTPIISPSDIYLHPGSNLNLSCHAASNPPAQYFWLINEKPHASSQELFIPNITTNNSGTYTCFVNNSVTGLSRTTVKNITVLEPVTQPFLQVTNTTVKELDSVTLTCLSNDIGANIQWLFNSQSLQLTERMTLSQNNSILRIDPIKREDAGEYQCEISNPVSVRRSNSIKLDIIFDPTQGGLSDGAIAGIVIGVVAGVALIAGLAYFLYSRKSGGGSDQRDLTEHKPSTSNHNLAPSDNSPNKVDDVAYTVLNFNSQQPNRPTSAPSSPRATETVYSEVKKK
binding: no binding
